From article PMC7269675 come the findings set out here.

Amino acid sequences for entries named in this document (tags omitted). Residues count along the entry.
UniProt P09102, residues 23-515: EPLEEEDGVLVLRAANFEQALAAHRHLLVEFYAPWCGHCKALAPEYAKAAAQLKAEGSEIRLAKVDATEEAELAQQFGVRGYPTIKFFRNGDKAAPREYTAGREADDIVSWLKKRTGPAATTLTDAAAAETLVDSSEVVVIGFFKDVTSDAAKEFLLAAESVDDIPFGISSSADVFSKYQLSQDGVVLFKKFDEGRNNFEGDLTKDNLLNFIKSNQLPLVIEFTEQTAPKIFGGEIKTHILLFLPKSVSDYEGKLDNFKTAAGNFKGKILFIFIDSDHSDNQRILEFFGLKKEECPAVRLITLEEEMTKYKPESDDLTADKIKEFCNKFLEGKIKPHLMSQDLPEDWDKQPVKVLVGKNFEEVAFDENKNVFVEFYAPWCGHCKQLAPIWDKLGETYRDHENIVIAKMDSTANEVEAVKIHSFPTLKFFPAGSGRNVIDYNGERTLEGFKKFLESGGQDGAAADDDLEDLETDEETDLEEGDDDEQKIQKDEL

These are yes or no findings as the source states them, for the method shown. In cells and extracts the contact can be indirect. These calls come from enrichment with a bait or labelling near it, and not all partners need be listed.

This assay has as its target T1, peanut agglutinin (peanut) (UniProt P02872).
T1 sequence (chain, bound to agarose): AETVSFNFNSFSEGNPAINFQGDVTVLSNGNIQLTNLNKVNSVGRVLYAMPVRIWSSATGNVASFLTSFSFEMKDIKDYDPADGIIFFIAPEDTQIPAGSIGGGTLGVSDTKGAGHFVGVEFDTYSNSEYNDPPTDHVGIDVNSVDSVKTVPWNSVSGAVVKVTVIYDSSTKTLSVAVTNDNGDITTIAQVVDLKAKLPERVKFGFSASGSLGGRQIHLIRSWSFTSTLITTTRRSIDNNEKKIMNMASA
Description: affinity purification with mass spectrometry; 400 chick embryo trunks fractionated on agarose-bound PNA; column eluted with 0.5M NaCl, 1% CHAPS, 100 mM Tris-HCl pH 7.5, then with 0.4M lactose/2% CHAPS in PBS; 57 kDa silver-stained band excised, tryptic digestion and mass spectrometry; only the target purified.

Regarding “somite cell surface protein disulphide isomerase (chicken PDIA1/P4HB) (from UniProt P09102 23-515) (enzyme)”, the binding result is listed as “binds”.
